PMC8093035
These are yes or no findings as the source states them, for the method shown. In cells and extracts the contact can be indirect. Some binding calls cover weakened binding; strength is not graded here.

Protein sequences, listed by entry. Tags and fused reporters are not part of them.
UniProt Q92973: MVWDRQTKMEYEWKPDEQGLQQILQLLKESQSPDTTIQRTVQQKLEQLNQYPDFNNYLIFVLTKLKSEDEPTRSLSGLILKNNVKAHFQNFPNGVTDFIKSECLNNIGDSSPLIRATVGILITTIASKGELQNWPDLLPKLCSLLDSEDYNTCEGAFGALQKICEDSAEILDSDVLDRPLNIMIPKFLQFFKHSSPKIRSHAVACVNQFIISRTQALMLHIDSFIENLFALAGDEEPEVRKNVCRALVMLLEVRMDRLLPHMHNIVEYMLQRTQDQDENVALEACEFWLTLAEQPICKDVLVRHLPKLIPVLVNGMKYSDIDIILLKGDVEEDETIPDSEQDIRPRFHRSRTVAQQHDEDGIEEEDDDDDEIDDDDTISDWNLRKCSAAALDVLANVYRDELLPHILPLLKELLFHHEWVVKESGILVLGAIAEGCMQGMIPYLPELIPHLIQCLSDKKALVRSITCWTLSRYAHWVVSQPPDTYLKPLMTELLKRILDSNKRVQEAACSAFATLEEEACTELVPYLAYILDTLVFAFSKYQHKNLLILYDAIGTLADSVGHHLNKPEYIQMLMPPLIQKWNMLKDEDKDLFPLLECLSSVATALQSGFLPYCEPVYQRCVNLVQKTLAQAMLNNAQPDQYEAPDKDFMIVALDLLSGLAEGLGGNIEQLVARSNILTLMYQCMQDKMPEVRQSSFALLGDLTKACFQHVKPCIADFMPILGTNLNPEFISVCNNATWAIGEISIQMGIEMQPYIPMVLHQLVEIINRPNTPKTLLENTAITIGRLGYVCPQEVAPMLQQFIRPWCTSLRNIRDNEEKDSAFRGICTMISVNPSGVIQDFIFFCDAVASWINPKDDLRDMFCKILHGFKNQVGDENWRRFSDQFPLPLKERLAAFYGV
UniProt Q96AE4: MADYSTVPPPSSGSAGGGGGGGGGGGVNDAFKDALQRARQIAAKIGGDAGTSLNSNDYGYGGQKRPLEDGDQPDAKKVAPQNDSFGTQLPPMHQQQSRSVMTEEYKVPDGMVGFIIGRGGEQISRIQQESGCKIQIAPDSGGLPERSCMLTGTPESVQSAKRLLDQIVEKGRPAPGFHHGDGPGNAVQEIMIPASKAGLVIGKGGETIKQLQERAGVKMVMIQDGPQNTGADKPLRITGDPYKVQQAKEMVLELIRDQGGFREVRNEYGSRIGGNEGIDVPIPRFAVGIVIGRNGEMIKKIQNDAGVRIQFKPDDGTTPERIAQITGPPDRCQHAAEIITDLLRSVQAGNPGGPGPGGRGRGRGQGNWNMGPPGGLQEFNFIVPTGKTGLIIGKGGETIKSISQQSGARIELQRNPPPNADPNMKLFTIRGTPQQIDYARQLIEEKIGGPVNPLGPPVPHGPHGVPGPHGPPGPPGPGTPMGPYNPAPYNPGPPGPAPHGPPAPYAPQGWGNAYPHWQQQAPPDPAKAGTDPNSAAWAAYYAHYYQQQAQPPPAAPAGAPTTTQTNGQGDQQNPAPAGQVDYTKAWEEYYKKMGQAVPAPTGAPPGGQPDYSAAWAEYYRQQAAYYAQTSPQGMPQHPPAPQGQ

Assays:
[1] = target: Transportin-1 (human (endogenous in MS751 and Siha)) (UniProt Q92973); assay: co-IP; immunoprecipitation of FUBP1 or of TNPO1 from MS751 and Siha cells, immunoblot of the other protein; protocol as in ref. 21
[2] = target: Far upstream element binding protein 1 (human (endogenous in MS751 and Siha)) (UniProt Q96AE4); assay: as above

Substance	binding [1]	binding [2]
Far upstream element binding protein 1 (from UniProt Q96AE4 1-644)	binds	–
Transportin-1 (from UniProt Q92973 1-898)	–	binds
